# Assay results as given in publication PMC5996148.
# Protein sequences, listed by entry. Tags and fused reporters are not part of them.
# UniProt Q16143, whole entry: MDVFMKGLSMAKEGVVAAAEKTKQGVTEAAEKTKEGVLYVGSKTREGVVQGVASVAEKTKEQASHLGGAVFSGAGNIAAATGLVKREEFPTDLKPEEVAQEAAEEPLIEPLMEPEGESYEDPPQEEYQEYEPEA
# Some of the results follow. For some of these results: Construct or isoform of the protein are uncertain.
# Columns and labels:
# Test in all cases: protein microarray (ProtoArray v5.0), streptavidin-Alexa Fluor 647
# Conditions in all cases: 3'-biotin; 20 mM Tris (pH 7.5), 5 mM MgCl2, 100 mM KCl, 0.1% Tween-20, A/T-rich and random oligonucleotide blockers; temperature not stated; high values mean tight binding
# SNAP29 (human) = tested on: SNAP29 (human)
# SNAPC5 = target: T1, SNAPC5 (UniProt O75971)
# T1 sequence: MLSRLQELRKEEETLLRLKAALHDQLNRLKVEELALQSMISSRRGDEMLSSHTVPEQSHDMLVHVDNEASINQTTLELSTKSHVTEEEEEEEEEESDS
# SNCA (human) = tested on: SNCA (human)
# SNCB = SNCB (UniProt Q16143)
# SNF1LK2 (human) = tested on: SNF1LK2 (human)
# SNF8 (human) = tested on: SNF8 (human)
# SNFT = target: T2, SNFT (UniProt Q9NR55)
# T2 sequence: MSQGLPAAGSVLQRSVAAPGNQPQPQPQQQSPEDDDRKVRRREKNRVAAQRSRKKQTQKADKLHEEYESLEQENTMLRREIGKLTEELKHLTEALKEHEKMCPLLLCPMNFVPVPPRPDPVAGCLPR
# SNIP (human) = tested on: SNIP (human)
# SNX1 (human) = tested on: SNX1 (human)
# SNX10 (human) = tested on: SNX10 (human)
sequence,measurement,setting,value
GGGAGGCTGAGGCAGG [G4-1 biotinylated (PQS2)],binding signal,SNAP29 (human),-0.305 z-score
same,binding signal,SNAPC5,-0.346 z-score
same,binding signal,SNCA (human),-0.365 z-score
same,binding signal,SNCB,-0.361 z-score
same,binding signal,SNF1LK2 (human),-0.312 z-score
same,binding signal,SNF8 (human),-0.266 z-score
same,binding signal,SNFT,4.53 z-score
same,binding signal,SNIP (human),-0.292 z-score
same,binding signal,SNX1 (human),-0.295 z-score
same,binding signal,SNX10 (human),-0.303 z-score
